# The other results are listed elsewhere or left out.
# Chains of the proteins cited; added tags and fusions are not shown. Lines headed by an entry give the natural chain unless they say otherwise; changes in a name come on top.
# UniProt Q8N5C7: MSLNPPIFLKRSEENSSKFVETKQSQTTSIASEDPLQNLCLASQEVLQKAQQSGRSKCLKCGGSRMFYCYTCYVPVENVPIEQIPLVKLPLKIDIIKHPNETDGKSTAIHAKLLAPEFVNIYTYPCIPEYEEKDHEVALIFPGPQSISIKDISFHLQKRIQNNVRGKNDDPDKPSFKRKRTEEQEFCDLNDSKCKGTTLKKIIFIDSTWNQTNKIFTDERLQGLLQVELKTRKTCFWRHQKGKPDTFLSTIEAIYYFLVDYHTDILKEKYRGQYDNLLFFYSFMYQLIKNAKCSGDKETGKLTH
# UniProt Q5VZP5: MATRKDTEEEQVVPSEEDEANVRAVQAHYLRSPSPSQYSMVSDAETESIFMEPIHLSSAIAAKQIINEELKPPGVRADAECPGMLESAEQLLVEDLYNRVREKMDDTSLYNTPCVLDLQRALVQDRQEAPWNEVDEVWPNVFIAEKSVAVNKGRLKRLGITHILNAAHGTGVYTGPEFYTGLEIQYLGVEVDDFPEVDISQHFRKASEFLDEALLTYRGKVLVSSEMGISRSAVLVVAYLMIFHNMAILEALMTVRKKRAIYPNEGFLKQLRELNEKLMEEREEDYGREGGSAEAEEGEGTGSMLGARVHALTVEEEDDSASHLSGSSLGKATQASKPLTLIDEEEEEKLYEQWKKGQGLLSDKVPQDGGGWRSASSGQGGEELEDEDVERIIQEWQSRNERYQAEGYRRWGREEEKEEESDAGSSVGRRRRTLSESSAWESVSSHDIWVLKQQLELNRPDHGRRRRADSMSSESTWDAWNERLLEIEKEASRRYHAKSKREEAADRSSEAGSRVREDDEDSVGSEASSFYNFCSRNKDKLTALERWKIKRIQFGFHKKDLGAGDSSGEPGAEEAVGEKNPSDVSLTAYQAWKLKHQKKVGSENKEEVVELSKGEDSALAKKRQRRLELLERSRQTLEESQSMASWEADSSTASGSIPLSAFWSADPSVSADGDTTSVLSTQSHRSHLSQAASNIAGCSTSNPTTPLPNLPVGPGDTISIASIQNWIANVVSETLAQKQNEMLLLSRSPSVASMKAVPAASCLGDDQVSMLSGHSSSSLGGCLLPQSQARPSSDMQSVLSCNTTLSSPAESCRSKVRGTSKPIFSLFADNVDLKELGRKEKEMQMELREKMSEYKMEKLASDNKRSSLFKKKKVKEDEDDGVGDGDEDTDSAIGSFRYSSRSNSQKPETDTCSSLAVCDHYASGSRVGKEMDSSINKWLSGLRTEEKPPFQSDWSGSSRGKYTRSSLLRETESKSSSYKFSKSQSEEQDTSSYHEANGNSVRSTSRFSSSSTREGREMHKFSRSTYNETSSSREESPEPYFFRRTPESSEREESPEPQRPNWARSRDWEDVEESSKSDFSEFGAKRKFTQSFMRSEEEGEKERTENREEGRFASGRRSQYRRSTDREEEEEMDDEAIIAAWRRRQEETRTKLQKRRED
# UniProt Q8TEA8: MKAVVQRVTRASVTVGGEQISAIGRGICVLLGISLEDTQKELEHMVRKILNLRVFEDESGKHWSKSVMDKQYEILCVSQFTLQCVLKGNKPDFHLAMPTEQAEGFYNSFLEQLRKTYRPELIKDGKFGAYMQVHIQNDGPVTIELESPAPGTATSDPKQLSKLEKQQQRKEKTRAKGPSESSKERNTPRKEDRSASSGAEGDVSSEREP
# UniProt Q4G0W2: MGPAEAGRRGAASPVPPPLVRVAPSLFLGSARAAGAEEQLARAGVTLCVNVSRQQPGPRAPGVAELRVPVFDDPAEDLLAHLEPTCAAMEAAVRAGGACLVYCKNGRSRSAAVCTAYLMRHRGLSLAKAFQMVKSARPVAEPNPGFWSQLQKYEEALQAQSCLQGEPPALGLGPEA
# UniProt Q8TEK3: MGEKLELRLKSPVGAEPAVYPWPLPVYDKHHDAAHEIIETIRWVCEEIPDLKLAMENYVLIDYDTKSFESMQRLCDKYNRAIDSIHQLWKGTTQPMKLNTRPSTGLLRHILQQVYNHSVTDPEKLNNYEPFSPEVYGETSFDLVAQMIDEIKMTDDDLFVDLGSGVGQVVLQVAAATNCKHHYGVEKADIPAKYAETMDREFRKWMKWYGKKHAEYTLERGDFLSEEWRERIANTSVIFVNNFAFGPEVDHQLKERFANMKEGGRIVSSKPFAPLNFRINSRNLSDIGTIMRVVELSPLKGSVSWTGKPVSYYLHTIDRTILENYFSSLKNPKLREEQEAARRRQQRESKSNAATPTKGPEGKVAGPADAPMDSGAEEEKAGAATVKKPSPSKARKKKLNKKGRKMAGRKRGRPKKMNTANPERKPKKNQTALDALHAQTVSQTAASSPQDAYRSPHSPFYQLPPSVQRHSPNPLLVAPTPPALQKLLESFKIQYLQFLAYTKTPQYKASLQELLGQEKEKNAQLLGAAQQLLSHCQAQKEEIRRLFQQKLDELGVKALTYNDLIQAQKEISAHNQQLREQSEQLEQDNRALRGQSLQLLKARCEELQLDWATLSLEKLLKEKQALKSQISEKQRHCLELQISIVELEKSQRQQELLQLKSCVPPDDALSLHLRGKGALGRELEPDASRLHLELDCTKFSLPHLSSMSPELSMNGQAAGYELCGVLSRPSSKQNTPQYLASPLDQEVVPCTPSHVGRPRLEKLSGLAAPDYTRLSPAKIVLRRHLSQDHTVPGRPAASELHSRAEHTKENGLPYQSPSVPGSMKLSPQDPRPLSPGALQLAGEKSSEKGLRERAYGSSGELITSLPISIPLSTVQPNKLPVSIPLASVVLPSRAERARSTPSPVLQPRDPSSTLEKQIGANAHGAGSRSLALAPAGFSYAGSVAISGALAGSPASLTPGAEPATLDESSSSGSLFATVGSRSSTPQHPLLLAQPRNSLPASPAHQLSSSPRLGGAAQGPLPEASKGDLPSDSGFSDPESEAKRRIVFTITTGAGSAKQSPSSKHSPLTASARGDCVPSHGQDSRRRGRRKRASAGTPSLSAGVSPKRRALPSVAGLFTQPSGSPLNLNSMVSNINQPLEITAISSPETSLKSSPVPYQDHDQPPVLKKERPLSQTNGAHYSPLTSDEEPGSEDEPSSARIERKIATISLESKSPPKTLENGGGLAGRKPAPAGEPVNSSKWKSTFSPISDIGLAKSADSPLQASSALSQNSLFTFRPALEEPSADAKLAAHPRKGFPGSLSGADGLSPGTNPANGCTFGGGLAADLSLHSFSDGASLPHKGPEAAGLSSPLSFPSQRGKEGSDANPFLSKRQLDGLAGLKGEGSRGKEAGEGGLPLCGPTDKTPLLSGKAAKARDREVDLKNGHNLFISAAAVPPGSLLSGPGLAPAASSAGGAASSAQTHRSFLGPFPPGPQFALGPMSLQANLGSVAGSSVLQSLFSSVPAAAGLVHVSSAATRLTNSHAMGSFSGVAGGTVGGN
# UniProt P51452: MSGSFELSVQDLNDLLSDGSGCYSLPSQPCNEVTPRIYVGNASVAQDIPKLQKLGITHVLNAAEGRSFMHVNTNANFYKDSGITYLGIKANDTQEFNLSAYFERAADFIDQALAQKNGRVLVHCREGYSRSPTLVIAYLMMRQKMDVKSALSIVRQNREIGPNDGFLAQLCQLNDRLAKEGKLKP
# UniProt Q9Y6G9, whole entry: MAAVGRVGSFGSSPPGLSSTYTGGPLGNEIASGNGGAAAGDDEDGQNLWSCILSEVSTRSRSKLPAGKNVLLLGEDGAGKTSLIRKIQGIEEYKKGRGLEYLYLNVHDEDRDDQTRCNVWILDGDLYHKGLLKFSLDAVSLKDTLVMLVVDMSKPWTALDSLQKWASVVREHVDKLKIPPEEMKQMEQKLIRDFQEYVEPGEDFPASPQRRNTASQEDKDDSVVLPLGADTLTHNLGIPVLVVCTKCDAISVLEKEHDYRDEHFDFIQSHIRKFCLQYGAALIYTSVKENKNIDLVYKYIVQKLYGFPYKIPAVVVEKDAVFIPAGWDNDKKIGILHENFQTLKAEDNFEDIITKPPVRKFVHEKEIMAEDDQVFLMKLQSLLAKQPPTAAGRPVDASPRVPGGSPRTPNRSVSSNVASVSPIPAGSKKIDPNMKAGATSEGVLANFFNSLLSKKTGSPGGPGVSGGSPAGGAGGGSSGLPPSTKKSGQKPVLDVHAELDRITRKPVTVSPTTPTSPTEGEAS
# UniProt P60981: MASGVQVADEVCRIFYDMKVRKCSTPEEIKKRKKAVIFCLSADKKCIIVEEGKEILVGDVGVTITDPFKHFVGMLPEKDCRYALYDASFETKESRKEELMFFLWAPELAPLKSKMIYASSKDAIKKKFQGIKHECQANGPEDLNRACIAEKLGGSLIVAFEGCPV
# UniProt Q9H7D0, whole entry, looked up: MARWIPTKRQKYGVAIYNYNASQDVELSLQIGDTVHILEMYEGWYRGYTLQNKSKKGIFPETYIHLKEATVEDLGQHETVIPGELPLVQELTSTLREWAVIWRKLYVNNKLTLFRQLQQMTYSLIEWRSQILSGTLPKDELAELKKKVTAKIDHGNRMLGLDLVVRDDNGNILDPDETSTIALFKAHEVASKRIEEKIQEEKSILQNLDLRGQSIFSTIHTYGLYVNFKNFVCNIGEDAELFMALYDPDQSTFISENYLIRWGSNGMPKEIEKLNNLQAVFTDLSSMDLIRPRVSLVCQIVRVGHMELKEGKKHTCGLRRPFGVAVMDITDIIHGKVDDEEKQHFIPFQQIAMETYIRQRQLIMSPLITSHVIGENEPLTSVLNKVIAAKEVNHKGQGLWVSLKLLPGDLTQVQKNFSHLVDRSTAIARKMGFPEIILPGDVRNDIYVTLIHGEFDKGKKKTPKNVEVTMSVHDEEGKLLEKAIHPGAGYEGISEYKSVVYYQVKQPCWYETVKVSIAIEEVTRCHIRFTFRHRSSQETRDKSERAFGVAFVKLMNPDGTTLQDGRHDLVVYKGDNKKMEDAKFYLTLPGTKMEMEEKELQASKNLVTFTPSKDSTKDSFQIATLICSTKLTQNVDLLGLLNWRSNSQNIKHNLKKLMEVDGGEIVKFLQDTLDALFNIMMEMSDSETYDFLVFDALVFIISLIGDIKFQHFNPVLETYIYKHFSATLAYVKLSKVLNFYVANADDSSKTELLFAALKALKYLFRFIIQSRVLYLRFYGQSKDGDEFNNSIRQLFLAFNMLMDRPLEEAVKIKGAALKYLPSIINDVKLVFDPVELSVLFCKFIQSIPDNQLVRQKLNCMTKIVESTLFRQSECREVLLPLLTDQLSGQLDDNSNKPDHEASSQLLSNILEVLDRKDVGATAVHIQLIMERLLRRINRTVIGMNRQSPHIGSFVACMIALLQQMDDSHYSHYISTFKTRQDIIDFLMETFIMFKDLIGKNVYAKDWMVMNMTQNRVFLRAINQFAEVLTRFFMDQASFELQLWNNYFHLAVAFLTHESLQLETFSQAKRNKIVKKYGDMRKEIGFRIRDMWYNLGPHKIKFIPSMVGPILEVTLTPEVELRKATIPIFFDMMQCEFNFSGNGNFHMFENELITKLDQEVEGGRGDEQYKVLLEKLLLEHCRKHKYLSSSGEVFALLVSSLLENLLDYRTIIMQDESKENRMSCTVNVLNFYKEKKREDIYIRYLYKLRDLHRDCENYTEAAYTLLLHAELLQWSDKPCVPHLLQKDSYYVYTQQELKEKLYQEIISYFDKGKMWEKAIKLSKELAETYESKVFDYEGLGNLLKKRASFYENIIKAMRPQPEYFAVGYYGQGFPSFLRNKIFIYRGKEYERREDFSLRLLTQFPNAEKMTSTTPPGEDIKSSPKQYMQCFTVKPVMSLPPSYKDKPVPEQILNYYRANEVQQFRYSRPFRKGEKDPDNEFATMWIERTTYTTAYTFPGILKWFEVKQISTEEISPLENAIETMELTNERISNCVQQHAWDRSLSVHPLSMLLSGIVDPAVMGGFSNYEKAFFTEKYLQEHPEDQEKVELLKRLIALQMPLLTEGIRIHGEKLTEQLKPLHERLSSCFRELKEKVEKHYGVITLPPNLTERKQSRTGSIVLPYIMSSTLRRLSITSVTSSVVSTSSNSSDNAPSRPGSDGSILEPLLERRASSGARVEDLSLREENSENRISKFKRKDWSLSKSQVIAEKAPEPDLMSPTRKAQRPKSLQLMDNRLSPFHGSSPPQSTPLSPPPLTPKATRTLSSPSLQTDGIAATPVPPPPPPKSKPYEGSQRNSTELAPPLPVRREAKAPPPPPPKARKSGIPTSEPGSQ
# UniProt Q9UNI6, whole entry, looked up: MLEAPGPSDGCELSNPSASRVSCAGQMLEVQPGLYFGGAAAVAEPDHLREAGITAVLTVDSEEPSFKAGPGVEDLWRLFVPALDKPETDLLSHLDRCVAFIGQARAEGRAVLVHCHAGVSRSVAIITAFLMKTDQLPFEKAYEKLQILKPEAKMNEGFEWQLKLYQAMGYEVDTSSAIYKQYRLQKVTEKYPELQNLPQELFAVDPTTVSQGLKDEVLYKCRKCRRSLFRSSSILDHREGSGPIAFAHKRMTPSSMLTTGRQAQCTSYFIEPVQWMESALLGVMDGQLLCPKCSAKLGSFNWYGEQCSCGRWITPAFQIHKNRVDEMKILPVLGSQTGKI
# Compound: CC1Cc2ccccc2N1C(=O)C1CCCN(C1)C(=O)CCl (mixture of isomers) [TRIM25 ligand 11 (diastereomer mixture)]
# Experiment: probe-labelled cysteine peptide fold change vs DMSO (competition) (log2 fold change); higher = less target engagement (more negative = stronger competition)
# Conditions: 10 µM; THP-1; incubation time: 4 h
# 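Further: competitive chemoproteomic profiling in live THP-1 cells with an iodoacetamide desthiobiotin (IA-DTB) probe, comparing probe-labelled peptide intensities in compound-treated cells against DMSO-treated controls.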
row,Target,probe-labelled cysteine peptide fold change
1,DOCK11_Q5JSL3_1110_VQDSNLEYSLSDEYCK (UniProt Q5JSL3),0.137
2,DYNC1H1_Q14204_2594_VAAPDVVVPTLDTVRHEALLYTWLAEHKPLVLCGPPGSGK (UniProt Q14204),-0.242
3,DTWD1_Q8N5C7_126_LLAPEFVNIYTYPCIPEYEEK (UniProt Q8N5C7),0.0474
4,DNMT1_P26358_353+356_CIQCGQYLDDPDLK (UniProt P26358),0.159
5,DYNC1H1_Q14204_3389_ASLACGPMVK (UniProt Q14204),0.0233
6,DNMT1_P26358_1125_SQACEPSEPEIEIK (UniProt P26358),-0.098
7,DUSP27_Q5VZP5_81_ADAECPGMLESAEQLLVEDLYNR (UniProt Q5VZP5),-0.394
8,DTD1_Q8TEA8_84_QYEILCVSQFTLQCVLK (UniProt Q8TEA8),0.378
9,DOCK8_Q8NF50_259_QAELFALYPSVDEEDAVEIRPVPECPK (UniProt Q8NF50),0.0341
10,DUSP28_Q4G0W2_86_VPVFDDPAEDLLAHLEPTCAAMEAAVR (UniProt Q4G0W2),-0.0654
11,DOT1L_Q8TEK3_1075_GDCVPSHGQDSR (UniProt Q8TEK3),-0.0176
12,DUS1L_Q6P1R4_265_EHPCPLSYVR (UniProt Q6P1R4),0.219
13,DPH5_Q9H2P9_119_VIHNASIMNAVGCCGLQLYK (UniProt Q9H2P9),0.113
14,DUSP3_P51452_171_EIGPNDGFLAQLCQLNDR (UniProt P51452),-0.408
15,DPAGT1_Q9H3H5_42_LCGQDLNK (UniProt Q9H3H5),-0.0164
16,DYNC1LI1_Q9Y6G9_247_CDAISVLEK (UniProt Q9Y6G9),-0.0191
17,DSTN_P60981_46_KCIIVEEGK (UniProt P60981),-0.105
18,DOCK5_Q9H7D0_859_LNCMTK (UniProt Q9H7D0),0.0249
19,DUSP12_Q9UNI6_23_VSCAGQMLEVQPGLYFGGAAAVAEPDHLR (UniProt Q9UNI6),-0.0877

# Same assay, conditions: 50 µM; THP-1; incubation time: 4 h
row,Target,probe-labelled cysteine peptide fold change
1,DSTN_P60981_23_CSTPEEIK (UniProt P60981),-0.00451
2,DNTTIP1_Q9H147_156_QAEEECAHR (UniProt Q9H147),-0.232
3,DOK3_Q7L591_323_LPELTRPQPCPLPR (UniProt Q7L591),-0.185
4,DYNC1H1_Q14204_867_SLETCMYDHK (UniProt Q14204),0.0115
5,DYNC1H1_Q14204_1999_TSAPITCELLNK (UniProt Q14204),-0.0602
6,DOK1_Q99704_389_DAWWCQAR (UniProt Q99704),-0.0503
7,DOK3_Q7L591_144_LADCVSVLPADGESCPR (UniProt Q7L591),0.0981
8,DTYMK_P23919_31_LVEALCAAGHR (UniProt P23919),0.038
9,DOK2_O60496_36_FGASLYGGSDCALAR (UniProt O60496),0.00145
10,DPYSL2_Q16555_179_DRFQLTDCQIYEVLSVIR (UniProt Q16555),0.128
11,DUSP23_Q9BVJ7_95_GEAVGVHCALGFGR (UniProt Q9BVJ7),0.14
12,DSTN_P60981_135_HECQANGPEDLNR (UniProt P60981),0.0817
13,DYNC1H1_Q14204_4570_LQGATCNNNK (UniProt Q14204),0.0555
14,EARS2_Q5JPH6_386_LQVLVEEAFGCQLQNR (UniProt Q5JPH6),-0.00715
15,DPH5_Q9H2P9_219_IRGEEPAVTEETLCVGLAR (UniProt Q9H2P9),-0.127
16,DSN1_Q9H410_191_CFEDSNGK (UniProt Q9H410),0.0971
17,DNMT1_P26358_1339_ACQLSVVVDDKK (UniProt P26358),0.0706
18,DOCK11_Q5JSL3_1110_VQDSNLEYSLSDEYCK (UniProt Q5JSL3),0.139

row,Target,probe-labelled cysteine peptide fold change
1,DYNC1H1_Q14204_2594_VAAPDVVVPTLDTVRHEALLYTWLAEHKPLVLCGPPGSGK (UniProt Q14204),-0.191
2,DTWD1_Q8N5C7_126_LLAPEFVNIYTYPCIPEYEEK (UniProt Q8N5C7),-0.108
3,DNMT1_P26358_353+356_CIQCGQYLDDPDLK (UniProt P26358),0.177
4,DYNC1H1_Q14204_3389_ASLACGPMVK (UniProt Q14204),-0.0952
5,DNMT1_P26358_1125_SQACEPSEPEIEIK (UniProt P26358),-0.305
6,DUSP27_Q5VZP5_81_ADAECPGMLESAEQLLVEDLYNR (UniProt Q5VZP5),-0.249
7,DTD1_Q8TEA8_84_QYEILCVSQFTLQCVLK (UniProt Q8TEA8),0.323
8,DOCK8_Q8NF50_259_QAELFALYPSVDEEDAVEIRPVPECPK (UniProt Q8NF50),-0.0378
9,DUSP28_Q4G0W2_86_VPVFDDPAEDLLAHLEPTCAAMEAAVR (UniProt Q4G0W2),-0.0111
10,DOT1L_Q8TEK3_1075_GDCVPSHGQDSR (UniProt Q8TEK3),-0.0408
11,DUS1L_Q6P1R4_265_EHPCPLSYVR (UniProt Q6P1R4),0.148
12,DPH5_Q9H2P9_119_VIHNASIMNAVGCCGLQLYK (UniProt Q9H2P9),0.187
13,DUSP3_P51452_171_EIGPNDGFLAQLCQLNDR (UniProt P51452),-0.0736
14,DPAGT1_Q9H3H5_42_LCGQDLNK (UniProt Q9H3H5),0.0571
15,DYNC1LI1_Q9Y6G9_247_CDAISVLEK (UniProt Q9Y6G9),0.297
16,DSTN_P60981_46_KCIIVEEGK (UniProt P60981),-0.13
17,DOCK5_Q9H7D0_859_LNCMTK (UniProt Q9H7D0),-0.00631
18,DUSP12_Q9UNI6_23_VSCAGQMLEVQPGLYFGGAAAVAEPDHLR (UniProt Q9UNI6),-0.342

# Reference: the supplement of paper PMC12067093, “Discovery and optimisation of a covalent ligand for TRIM25 and its application to targeted protein ubiquitination” (Chemical Science, 2025)
